The target of the assay is T1, forkhead transcription factor FOXM1 (human (endogenous in human breast cell lines)) (UniProt Q08050).
T1 sequence: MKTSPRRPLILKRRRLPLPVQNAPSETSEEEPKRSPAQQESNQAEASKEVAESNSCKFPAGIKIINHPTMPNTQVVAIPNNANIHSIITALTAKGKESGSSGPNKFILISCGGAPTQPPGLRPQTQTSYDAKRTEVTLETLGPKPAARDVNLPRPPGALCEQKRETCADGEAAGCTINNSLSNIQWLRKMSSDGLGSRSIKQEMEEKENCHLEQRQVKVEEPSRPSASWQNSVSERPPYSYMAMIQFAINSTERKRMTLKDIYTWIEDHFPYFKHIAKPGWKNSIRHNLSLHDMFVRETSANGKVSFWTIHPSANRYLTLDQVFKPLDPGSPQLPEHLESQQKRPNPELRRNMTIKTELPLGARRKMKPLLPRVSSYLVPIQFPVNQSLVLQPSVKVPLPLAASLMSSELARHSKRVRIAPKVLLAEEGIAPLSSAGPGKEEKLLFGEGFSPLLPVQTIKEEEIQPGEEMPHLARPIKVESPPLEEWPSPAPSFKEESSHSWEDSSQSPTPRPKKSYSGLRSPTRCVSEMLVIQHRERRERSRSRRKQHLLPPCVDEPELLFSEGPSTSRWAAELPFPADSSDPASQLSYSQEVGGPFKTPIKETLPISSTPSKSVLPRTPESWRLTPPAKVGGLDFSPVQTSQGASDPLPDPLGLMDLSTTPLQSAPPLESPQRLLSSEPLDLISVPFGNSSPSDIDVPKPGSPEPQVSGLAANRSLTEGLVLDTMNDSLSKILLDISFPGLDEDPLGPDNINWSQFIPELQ
Nature of the assay: co-IP; nuclear co-immunoprecipitation kit (Active Motif); pull-down with anti-FOXM1 (Santa Cruz sc-502); low or high immunoprecipitation buffers with 1X protease inhibitor cocktail and 1 mM DTT; detection by western blot. (Immunoblotting shows a protein as a band on a membrane.)

The chains behind the UniProt entries cited, without tags or fusion partners.
UniProt P03372: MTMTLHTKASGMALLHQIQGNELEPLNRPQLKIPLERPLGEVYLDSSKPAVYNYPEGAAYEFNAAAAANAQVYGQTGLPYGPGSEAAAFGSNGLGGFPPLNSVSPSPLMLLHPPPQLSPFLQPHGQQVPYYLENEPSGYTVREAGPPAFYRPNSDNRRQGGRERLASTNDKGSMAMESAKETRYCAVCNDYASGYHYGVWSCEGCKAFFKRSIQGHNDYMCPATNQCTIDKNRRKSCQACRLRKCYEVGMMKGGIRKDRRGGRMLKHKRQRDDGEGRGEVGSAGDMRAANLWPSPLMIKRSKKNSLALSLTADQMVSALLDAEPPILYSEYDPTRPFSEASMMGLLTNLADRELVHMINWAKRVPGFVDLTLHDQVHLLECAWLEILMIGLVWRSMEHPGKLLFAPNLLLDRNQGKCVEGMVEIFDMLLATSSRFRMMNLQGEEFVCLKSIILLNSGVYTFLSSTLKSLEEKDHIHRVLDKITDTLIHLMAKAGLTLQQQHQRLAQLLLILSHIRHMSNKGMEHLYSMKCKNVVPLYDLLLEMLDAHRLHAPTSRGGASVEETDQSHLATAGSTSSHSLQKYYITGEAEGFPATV

These results are taken from publication PMC3663086.

These are yes or no findings as the source states them, for the method shown. Binding seen in cells or lysates may run through a third protein. Some binding calls cover weakened binding; strength is not graded here.

In the case of “estrogen receptor alpha (from UniProt P03372 1-595)”, the binding result is “binds”.
